This is one part of the list.
Compound: CC1Cc2ccccc2N1C(=O)C1CCCN(C1)C(=O)CCl (mixture of isomers) [TRIM25 ligand 11 (diastereomer mixture)]
Experiment: probe-labelled cysteine peptide fold change vs DMSO (competition) (log2 fold change); higher = less target engagement (more negative = stronger competition)
Settings: THP-1, incubation time: 4 h
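Also: competitive chemoproteomic profiling in live THP-1 cells with an iodoacetamide desthiobiotin (IA-DTB) probe, comparing probe-labelled peptide intensities in compound-treated cells against DMSO-treated controls.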

Sequences of proteins named here, by UniProt entry; tags and fusion partners are left off. A change or cut given only in a name is not applied to a line headed by its entry.
UniProt Q8N3U4: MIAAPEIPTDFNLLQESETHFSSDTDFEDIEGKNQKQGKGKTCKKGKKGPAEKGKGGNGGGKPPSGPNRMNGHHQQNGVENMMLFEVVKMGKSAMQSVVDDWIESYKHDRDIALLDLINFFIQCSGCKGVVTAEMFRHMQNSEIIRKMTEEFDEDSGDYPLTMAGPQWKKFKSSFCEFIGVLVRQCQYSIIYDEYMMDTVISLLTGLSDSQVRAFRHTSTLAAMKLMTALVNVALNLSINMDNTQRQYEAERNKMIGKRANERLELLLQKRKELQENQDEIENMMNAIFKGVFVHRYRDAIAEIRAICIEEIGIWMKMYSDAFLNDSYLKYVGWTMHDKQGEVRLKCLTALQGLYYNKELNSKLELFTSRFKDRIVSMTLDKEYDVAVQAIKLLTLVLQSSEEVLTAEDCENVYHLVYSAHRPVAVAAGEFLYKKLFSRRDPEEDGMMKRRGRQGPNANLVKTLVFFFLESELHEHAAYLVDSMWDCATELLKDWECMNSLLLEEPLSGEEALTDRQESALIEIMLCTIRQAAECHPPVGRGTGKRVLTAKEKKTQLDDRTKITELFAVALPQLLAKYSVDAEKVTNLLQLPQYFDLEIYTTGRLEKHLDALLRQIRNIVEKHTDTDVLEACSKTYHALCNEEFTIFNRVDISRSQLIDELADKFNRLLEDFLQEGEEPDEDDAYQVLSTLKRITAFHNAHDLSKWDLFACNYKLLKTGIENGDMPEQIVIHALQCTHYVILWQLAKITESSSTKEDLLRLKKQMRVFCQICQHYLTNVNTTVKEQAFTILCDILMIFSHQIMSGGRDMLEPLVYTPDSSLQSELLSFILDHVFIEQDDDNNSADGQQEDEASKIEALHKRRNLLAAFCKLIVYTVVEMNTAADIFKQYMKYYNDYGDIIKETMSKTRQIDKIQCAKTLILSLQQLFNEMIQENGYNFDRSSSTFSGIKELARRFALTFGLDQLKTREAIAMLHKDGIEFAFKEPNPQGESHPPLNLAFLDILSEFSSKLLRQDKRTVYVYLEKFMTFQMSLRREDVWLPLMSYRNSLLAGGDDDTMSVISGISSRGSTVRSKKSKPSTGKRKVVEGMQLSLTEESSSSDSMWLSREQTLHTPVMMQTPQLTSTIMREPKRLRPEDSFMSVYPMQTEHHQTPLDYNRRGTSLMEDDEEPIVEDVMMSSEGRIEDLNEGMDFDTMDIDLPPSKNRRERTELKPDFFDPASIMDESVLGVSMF
UniProt Q658P3: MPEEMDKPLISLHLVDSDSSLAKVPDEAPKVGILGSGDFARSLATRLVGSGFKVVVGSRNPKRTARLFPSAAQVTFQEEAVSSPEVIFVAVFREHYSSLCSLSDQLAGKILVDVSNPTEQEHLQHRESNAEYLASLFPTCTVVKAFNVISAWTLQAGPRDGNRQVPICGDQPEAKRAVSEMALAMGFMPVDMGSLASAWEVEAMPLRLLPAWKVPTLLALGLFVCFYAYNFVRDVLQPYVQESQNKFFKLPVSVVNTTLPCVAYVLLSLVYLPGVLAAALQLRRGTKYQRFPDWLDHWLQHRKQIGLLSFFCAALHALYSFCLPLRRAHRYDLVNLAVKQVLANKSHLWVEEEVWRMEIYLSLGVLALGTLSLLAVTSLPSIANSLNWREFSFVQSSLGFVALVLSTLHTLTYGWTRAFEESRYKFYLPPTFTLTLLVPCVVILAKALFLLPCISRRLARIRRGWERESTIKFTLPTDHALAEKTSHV
UniProt O00186: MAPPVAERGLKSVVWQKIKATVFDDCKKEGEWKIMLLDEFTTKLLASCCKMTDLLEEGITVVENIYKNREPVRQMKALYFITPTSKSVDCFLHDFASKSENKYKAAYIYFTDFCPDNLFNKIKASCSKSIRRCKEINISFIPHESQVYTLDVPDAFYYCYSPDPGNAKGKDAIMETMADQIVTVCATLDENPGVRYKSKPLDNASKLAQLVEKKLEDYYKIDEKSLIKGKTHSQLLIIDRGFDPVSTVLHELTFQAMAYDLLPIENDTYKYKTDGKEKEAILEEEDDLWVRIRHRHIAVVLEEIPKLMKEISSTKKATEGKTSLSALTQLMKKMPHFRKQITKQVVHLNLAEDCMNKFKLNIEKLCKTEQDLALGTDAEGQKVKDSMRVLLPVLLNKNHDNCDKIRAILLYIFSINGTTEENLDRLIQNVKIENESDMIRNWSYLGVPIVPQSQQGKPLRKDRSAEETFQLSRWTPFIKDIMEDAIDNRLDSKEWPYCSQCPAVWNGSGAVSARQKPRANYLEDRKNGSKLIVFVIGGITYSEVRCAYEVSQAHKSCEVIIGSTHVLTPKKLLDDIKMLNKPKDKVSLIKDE
UniProt Q9Y6E0: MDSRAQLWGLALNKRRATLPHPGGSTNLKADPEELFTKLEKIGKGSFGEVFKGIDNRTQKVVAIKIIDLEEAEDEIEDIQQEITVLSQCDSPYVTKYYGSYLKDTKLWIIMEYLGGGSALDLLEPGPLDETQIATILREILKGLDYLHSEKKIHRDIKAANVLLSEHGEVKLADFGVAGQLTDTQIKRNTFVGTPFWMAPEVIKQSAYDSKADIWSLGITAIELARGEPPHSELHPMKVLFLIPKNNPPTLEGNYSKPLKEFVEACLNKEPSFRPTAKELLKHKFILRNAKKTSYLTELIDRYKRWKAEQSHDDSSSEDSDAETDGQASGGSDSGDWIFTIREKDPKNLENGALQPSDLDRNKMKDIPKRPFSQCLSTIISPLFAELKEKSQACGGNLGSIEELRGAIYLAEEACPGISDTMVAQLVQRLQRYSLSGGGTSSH
UniProt Q9Y5B9, whole entry, looked up: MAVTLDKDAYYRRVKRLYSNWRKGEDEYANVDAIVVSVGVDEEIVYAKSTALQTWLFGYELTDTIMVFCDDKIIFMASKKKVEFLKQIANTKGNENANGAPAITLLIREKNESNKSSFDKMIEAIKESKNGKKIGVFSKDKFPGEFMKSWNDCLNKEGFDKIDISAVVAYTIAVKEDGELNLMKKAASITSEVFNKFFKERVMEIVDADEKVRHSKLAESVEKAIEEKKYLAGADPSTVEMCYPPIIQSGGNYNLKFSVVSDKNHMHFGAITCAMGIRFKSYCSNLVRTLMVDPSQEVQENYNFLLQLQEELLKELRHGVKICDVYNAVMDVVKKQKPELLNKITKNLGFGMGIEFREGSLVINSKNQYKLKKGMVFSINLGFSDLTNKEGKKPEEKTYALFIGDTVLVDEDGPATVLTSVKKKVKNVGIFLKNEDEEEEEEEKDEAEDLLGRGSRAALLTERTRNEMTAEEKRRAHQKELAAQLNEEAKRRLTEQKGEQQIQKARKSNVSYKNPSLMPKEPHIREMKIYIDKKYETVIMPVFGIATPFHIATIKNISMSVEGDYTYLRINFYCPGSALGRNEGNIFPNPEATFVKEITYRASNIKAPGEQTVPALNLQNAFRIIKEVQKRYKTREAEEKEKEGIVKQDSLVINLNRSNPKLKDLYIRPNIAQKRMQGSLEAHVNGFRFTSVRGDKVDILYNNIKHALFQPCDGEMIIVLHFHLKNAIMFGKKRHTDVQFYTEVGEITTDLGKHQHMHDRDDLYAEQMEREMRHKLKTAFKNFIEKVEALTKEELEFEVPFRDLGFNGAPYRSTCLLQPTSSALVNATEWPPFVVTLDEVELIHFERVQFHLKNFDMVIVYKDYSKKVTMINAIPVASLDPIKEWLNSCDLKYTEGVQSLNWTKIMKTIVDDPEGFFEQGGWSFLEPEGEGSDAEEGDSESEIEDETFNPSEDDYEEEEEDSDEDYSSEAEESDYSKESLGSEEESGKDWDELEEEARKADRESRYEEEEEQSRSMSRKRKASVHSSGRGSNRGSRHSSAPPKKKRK
UniProt Q8IYB8: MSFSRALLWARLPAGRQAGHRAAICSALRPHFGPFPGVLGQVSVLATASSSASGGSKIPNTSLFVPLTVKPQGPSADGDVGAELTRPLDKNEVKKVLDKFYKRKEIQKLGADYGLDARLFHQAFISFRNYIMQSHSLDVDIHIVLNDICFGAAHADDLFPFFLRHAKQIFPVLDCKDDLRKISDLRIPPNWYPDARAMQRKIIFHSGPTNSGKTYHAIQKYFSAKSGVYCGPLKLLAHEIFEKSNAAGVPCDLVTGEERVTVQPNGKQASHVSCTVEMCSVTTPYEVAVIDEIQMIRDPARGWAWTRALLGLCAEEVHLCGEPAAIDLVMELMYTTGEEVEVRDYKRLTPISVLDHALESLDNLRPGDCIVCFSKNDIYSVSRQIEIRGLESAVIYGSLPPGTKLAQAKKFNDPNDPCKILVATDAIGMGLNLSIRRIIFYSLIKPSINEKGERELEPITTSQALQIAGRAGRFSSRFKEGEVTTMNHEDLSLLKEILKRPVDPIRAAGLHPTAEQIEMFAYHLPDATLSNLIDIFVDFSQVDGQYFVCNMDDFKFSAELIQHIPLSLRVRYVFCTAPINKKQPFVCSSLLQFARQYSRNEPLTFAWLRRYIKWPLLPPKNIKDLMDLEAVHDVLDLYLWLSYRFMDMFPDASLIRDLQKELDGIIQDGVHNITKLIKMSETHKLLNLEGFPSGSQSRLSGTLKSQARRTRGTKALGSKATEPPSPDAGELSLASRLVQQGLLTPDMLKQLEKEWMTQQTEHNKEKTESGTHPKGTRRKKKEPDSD
UniProt P42224: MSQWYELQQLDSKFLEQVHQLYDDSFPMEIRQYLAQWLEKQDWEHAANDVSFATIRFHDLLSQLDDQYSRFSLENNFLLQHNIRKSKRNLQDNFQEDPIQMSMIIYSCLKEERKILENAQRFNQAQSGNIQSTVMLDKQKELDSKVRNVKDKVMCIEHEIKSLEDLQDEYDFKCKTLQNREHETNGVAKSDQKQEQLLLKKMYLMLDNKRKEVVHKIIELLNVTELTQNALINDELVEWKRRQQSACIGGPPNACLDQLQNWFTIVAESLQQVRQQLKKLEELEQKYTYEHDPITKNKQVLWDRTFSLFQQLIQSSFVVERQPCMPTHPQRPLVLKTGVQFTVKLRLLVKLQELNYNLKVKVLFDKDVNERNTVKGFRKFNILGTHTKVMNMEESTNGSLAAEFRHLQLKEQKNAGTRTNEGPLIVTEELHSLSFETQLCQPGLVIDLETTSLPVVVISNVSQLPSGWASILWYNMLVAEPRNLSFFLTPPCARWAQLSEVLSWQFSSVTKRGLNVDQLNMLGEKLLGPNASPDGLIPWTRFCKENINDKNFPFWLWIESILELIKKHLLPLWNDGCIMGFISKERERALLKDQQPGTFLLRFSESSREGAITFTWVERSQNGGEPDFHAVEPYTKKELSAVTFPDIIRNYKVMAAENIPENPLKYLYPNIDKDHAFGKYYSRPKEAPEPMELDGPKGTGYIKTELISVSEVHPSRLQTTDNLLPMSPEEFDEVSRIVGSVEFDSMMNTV
UniProt O94768: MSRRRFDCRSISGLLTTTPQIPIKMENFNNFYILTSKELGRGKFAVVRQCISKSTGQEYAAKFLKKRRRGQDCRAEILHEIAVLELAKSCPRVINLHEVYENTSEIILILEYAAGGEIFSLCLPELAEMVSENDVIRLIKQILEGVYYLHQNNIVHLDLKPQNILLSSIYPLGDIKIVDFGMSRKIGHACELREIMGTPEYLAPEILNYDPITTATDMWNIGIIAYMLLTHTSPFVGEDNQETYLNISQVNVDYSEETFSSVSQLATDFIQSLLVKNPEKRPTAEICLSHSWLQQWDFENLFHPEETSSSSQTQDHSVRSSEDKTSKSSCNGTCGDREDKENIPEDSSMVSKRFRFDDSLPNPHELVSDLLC
UniProt Q9BYN0: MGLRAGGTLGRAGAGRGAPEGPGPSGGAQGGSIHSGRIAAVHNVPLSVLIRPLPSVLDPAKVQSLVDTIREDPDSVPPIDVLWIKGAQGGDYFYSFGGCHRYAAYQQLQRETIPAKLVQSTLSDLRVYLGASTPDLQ
UniProt Q15022: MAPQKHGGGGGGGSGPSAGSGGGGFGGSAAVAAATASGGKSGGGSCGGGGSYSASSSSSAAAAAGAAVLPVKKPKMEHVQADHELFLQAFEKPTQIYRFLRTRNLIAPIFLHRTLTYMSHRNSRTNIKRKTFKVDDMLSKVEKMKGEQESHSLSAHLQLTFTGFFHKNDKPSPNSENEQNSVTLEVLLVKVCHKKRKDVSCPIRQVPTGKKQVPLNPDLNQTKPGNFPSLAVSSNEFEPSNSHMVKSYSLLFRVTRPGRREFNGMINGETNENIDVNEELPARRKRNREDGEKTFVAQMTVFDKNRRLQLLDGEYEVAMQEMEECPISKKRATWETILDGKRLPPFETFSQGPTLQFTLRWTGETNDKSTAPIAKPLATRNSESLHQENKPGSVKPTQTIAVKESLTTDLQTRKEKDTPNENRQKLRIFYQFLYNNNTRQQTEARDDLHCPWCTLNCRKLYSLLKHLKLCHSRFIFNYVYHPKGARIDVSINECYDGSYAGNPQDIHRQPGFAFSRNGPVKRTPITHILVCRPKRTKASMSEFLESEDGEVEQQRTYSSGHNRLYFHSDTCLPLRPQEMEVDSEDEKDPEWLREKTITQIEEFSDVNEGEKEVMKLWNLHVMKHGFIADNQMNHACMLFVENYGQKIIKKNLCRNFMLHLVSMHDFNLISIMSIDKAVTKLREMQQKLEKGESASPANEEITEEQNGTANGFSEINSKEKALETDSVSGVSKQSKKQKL

Target | probe-labelled cysteine peptide fold change (50 µM) | probe-labelled cysteine peptide fold change (10 µM)
ST13_P50502_209_LLGHWEEAAHDLALACKLDYDEDASAMLK (UniProt P50502) | -0.574 | –
STRIP1_Q5VSL9_100_CFEEDFR (UniProt Q5VSL9) | -0.169 | -0.00784
STAG2_Q8N3U4_308_AICIEEIGIWMK (UniProt Q8N3U4) | 0.329 | 0.133
STEAP3_Q658P3_140_ESNAEYLASLFPTCTVVK (UniProt Q658P3) | -0.0189 | 0.0192
SURF2_Q15527_29_CILTGHELPCR (UniProt Q15527) | 0.163 | 0.0486
STEAP3_Q658P3_168_QVPICGDQPEAK (UniProt Q658P3) | -0.124 | 0.0193
SVIL_O95425_1903_GEVPVEGNLLEVACHCSSLR (UniProt O95425) | 0.286 | 0.192
ST14_Q9Y5Y6_550_SQQCNGKDDCGDGSDEASCPK (UniProt Q9Y5Y6) | 0.0306 | 0.0828
SSRP1_Q08945_200_ADVIQATGDAICIFR (UniProt Q08945) | -0.0316 | -0.0282
SUCLG1_P53597_172_LIGPNCPGVINPGECK (UniProt P53597) | – | -0.0627
STXBP3_O00186_90_SVDCFLHDFASK (UniProt O00186) | -0.048 | 0.023
STK11IP_Q8N1F8_918_NCVSATEEEVTPQHR (UniProt Q8N1F8) | 0.108 | –
STXBP2_Q15833_45_ILSSCCK (UniProt Q15833) | 0.179 | -0.0852
STK24_Q9Y6E0_415_GAIYLAEEACPGISDTMVAQLVQR (UniProt Q9Y6E0) | 0.0625 | 0.113
STT3B_Q8TCJ2_40_HGHHGPGAQCAHK (UniProt Q8TCJ2) | -0.272 | -0.144
ST14_Q9Y5Y6_268_SFDLASCDER (UniProt Q9Y5Y6) | 0.108 | 0.0714
STRN4_Q9NRL3_17_AAAAVAAAASSCRPLGSGAGPGPTGAAPVSAPAPGPGPAGK (UniProt Q9NRL3) | -0.0897 | -0.0062
SUPT16H_Q9Y5B9_574_INFYCPGSALGR (UniProt Q9Y5B9) | – | 0.121
SUPV3L1_Q8IYB8_251_SNAAGVPCDLVTGEER (UniProt Q8IYB8) | -0.225 | 0.125
STAT1_P42224_492_NLSFFLTPPCAR (UniProt P42224) | -0.0776 | 0.177
SURF4_O15260_32_LCLISTFLEDGIR (UniProt O15260) | 0.348 | 0.474
SSBP4_Q9BWG4_81_EACEHSGEAK (UniProt Q9BWG4) | -0.344 | -0.257

Target | probe-labelled cysteine peptide fold change (50 µM) | probe-labelled cysteine peptide fold change (10 µM)
SUPV3L1_Q8IYB8_175_QIFPVLDCKDDLRK (UniProt Q8IYB8) | -0.144 | -0.295
STAMBP_O95630_406+408_DPPLFCSCSHVTVVDR (UniProt O95630) | -0.0767 | –
SSB_P05455_245_FSGDLDDQTCREDLHILFSNHGEIK (UniProt P05455) | -0.181 | -0.0319
SSRP1_Q08945_343_ITVPGNFQGHSGAQCITCSYK (UniProt Q08945) | 0.249 | 0.028
ST14_Q9Y5Y6_602+604_DCDCGLR (UniProt Q9Y5Y6) | 0.039 | 0.00859
SRPRB_Q9Y5M8_73_AVLLVGLCDSGK (UniProt Q9Y5M8) | 0.154 | -0.133
SURF2_Q15527_127_QGVEYVPACLVHR (UniProt Q15527) | 0.057 | -0.276
SUPV3L1_Q8IYB8_372_RLTPISVLDHALESLDNLRPGDCIVCFSK (UniProt Q8IYB8) | -0.0601 | -0.19
SSH3_Q8TE77_634_TQAFQEQEQGQGQGQGEPCISSTPR (UniProt Q8TE77) | – | -0.0571
STK17B_O94768_190_KIGHACELR (UniProt O94768) | 0.092 | 0.0638
SVIL_O95425_76_YCTETSGVHGDSPYGSGTMDTHSLESK (UniProt O95425) | -0.194 | 0.241
SRRT_Q9BXP5_628_IVHSLDYYNTCEYPNEDEMPNR (UniProt Q9BXP5) | -0.0323 | 0.0704
STRN4_Q9NRL3_337_CTVDGSPHELESR (UniProt Q9NRL3) | -0.206 | -0.0727
SURF2_Q15527_29+38_CILTGHELPCR (UniProt Q15527) | -0.0248 | -0.183
STXBP6_Q8NFX7_144_KPEFINCQSK (UniProt Q8NFX7) | -0.0812 | -0.162
SUGP2_Q8IX01_417_NCFFEIIKPFDK (UniProt Q8IX01) | -0.108 | -0.0766
STXBP3_O00186_48_LLASCCK (UniProt O00186) | 0.0833 | 0.0279
SRXN1_Q9BYN0_99_GAQGGDYFYSFGGCHR (UniProt Q9BYN0) | 0.494 | 0.287
STAT2_P52630_323_AFVVETQPCMPQTPHRPLILK (UniProt P52630) | 0.0157 | 0.0453
SRPK2_P78362_680_ASAGECLR (UniProt P78362) | 0.0217 | 0.0685
SUPT4H1_P63272_16_ACLLCSLVK (UniProt P63272) | 0.0428 | 0.0915
STXBP3_O00186_546_CAYEVSQAHK (UniProt O00186) | 0.132 | 0.118

Target | probe-labelled cysteine peptide fold change (50 µM) | probe-labelled cysteine peptide fold change (10 µM)
SUPT5H_O00267_638_LVENGGMFVCK (UniProt O00267) | 0.263 | -0.0153
STRIP1_Q5VSL9_769_LNDDWAYGNDLDARPWDFQAEECALR (UniProt Q5VSL9) | -0.189 | 0.119
SUPT16H_Q9Y5B9_323_ICDVYNAVMDVVK (UniProt Q9Y5B9) | -0.00646 | 0.141
STRAP_Q9Y3F4_270_GHFGPIHCVR (UniProt Q9Y3F4) | 0.0826 | 0.0731
STK17B_O94768_334_SSCNGTCGDREDK (UniProt O94768) | -0.00892 | -0.103
SUPT16H_Q9Y5B9_153_SWNDCLNK (UniProt Q9Y5B9) | 0.0947 | -0.00674
SUPT6H_Q7KZ85_1281_FSADLTCR (UniProt Q7KZ85) | 0.112 | 0.0643
STAT2_P52630_71_ATMLFFHFLDQLNYECGR (UniProt P52630) | -0.0509 | 0.0863
STOML2_Q9UJZ1_167_ESLNASIVDAINQAADCWGIR (UniProt Q9UJZ1) | 0.101 | 0.0415
SRRM2_Q9UQ35_785_SLSGSSPCPK (UniProt Q9UQ35) | -0.0247 | -0.0328
STRBP_Q96SI9_142_YQVEQCVNEASIIIR (UniProt Q96SI9) | -0.324 | -0.0465
STXBP2_Q15833_158_EIHLAFLPYEAQVFSLDAPHSTYNLYCPFRAEER (UniProt Q15833) | -0.351 | -0.269
SUPT20H_Q8NEM7_341_SDDSQPTVWPAHDVKDDYVFECEAGTQYQK (UniProt Q8NEM7) | -0.19 | -0.178
STXBP2_Q15833_44_ILSSCCK (UniProt Q15833) | 0.288 | 0.122
STIM2_Q9P246_313_EGAECELSR (UniProt Q9P246) | -0.231 | 0.0213
SRRM2_Q9UQ35_70_CLELEEMMEEQGYEEQQIQEK (UniProt Q9UQ35) | -0.0733 | -0.279
STXBP3_O00186_26_ATVFDDCK (UniProt O00186) | -0.123 | 0.0374
SUPT5H_O00267_638_KLVENGGMFVCK (UniProt O00267) | 0.0985 | 0.00368
SUZ12_Q15022_325_LQLLDGEYEVAMQEMEECPISK (UniProt Q15022) | -0.288 | -0.0543
SUN2_Q9UH99_705_ILTNWGHPEYTCIYR (UniProt Q9UH99) | 0.28 | 0.511
SRPRA_P08240_25_GGLVLWCFQGVSDSCTGPVNALIR (UniProt P08240) | -0.222 | 0.115
STAG2_Q8N3U4_176_SSFCEFIGVLVR (UniProt Q8N3U4) | 0.139 | 0.251

Target | probe-labelled cysteine peptide fold change (50 µM) | probe-labelled cysteine peptide fold change (10 µM)
STARD3_Q14849_317_TVTACQILQR (UniProt Q14849) | 0.195 | -0.00261
STAT1_P42224_324_QPCMPTHPQRPLVLK (UniProt P42224) | 0.0101 | 0.09
STAT6_P42226_228_CESLVDIYSQLQQEVGAAGGELEPK (UniProt P42226) | -0.12 | 0.0161
SRRT_Q9BXP5_640_CGIIHVR (UniProt Q9BXP5) | 0.144 | -0.017
STARD5_Q9NSY2_67_GEGIVYGTLEEVWDCVK (UniProt Q9NSY2) | -0.116 | -0.0123
SUPT6H_Q7KZ85_939_RIQDPLIEFAQVCSSDEDILCLK (UniProt Q7KZ85) | 0.221 | -0.53
STIP1_P31948_461_ALDLDSSCK (UniProt P31948) | -0.0246 | -0.0542
STRN_O43815_765_CYIASAGADALAK (UniProt O43815) | -0.0511 | 0.0216
STAT6_P42226_452_MCETLNLK (UniProt P42226) | -0.0396 | -0.147
STIM1_Q13586_56_IDKPLCHSEDEK (UniProt Q13586) | -0.555 | -0.158
STXBP2_Q15833_353_YSTHLHLADDCMK (UniProt Q15833) | -0.283 | -0.0444
SUZ12_Q15022_531_RTPITHILVCR (UniProt Q15022) | -0.0184 | 0.0364
SUPT16H_Q9Y5B9_323_ICDVYNAVMDVVKK (UniProt Q9Y5B9) | -0.0776 | -0.0967
SUPT6H_Q7KZ85_1265_VGMTVHCR (UniProt Q7KZ85) | 0.0584 | -0.253
STRN3_Q13033_604_NQLLSCSADGTVR (UniProt Q13033) | 0.262 | 0.125
STK24_Q9Y6E0_394_SQACGGNLGSIEELR (UniProt Q9Y6E0) | -0.159 | -0.0894
SUPT4H1_P63272_36_TIDQFEYDGCDNCDAYLQMK (UniProt P63272) | -0.0331 | -0.039
SRRT_Q9BXP5_412_DAAGLECKPR (UniProt Q9BXP5) | -0.0706 | 0.0439
STK39_Q9UEW8_525_LASGCDGSEIPDEVK (UniProt Q9UEW8) | 0.0755 | 0.141

Looked up above.
probe-labelled cysteine peptide fold change (50 µM) with SVIL_O95425_1903_GEVPVEGNLLEVACHCSSLR (UniProt O95425) reads 0.286
probe-labelled cysteine peptide fold change (10 µM) with SRXN1_Q9BYN0_99_GAQGGDYFYSFGGCHR (UniProt Q9BYN0) reads 0.287
probe-labelled cysteine peptide fold change (10 µM) with STRAP_Q9Y3F4_270_GHFGPIHCVR (UniProt Q9Y3F4) reads 0.0731
probe-labelled cysteine peptide fold change (50 µM) with STK17B_O94768_190_KIGHACELR (UniProt O94768) reads 0.092
probe-labelled cysteine peptide fold change (50 µM) with SUPT16H_Q9Y5B9_153_SWNDCLNK (UniProt Q9Y5B9) reads 0.0947
probe-labelled cysteine peptide fold change (10 µM) with SUGP2_Q8IX01_417_NCFFEIIKPFDK (UniProt Q8IX01) reads -0.0766
